These are yes or no findings as the source states them, for the method shown. Some binding calls cover weakened binding; strength is not graded here.
Legend:
[1] = biological target: T1, GDF11 (UniProt O95390); test: SPR (Biacore), ligand amine-coupled on CM5 chip, ActRIIA-mFc in solution
T1 sequence (looked up): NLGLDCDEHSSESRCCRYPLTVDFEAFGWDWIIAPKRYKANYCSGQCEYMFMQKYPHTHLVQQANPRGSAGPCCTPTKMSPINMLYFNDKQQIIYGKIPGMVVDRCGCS

Chains of the proteins cited; added tags and fusions are not shown. Lines headed by an entry give the natural chain unless they say otherwise; changes in a name come on top. Residues count along the entry.
UniProt P22004, residues 382-513: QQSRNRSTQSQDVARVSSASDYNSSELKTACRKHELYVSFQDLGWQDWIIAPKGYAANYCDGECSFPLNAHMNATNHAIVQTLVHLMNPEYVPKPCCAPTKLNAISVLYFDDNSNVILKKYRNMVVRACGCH
UniProt P27037: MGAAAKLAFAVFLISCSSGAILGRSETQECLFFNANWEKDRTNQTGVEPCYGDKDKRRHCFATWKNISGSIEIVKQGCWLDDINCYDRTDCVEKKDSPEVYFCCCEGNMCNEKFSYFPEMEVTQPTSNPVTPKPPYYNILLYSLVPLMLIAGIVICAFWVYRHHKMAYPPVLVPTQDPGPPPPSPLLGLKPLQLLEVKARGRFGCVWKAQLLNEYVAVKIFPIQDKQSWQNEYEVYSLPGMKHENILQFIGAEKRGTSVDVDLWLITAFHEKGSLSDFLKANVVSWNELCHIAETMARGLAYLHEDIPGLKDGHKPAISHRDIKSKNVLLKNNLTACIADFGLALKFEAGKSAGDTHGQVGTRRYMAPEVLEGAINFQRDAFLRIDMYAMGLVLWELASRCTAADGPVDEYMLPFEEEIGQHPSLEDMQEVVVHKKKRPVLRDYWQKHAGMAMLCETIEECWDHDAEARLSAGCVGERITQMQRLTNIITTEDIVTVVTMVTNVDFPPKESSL

[2] = biological target: T2, BMP10 (UniProt O95393); test: similar binding assay (Biacore)
T2 sequence (looked up): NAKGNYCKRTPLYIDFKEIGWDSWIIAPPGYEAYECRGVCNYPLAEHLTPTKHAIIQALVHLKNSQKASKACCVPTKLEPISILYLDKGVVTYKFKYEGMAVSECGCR

[3] = biological target: T3, activin B (UniProt P09529); test: similar binding assay (Biacore)
T3 sequence (looked up): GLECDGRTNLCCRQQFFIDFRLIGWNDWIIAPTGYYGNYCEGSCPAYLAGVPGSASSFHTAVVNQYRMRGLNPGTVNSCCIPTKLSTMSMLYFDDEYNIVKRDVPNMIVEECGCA

[4] = biological target: T4, GDF8 (UniProt O14793); test: similar binding assay (Biacore)
T4 sequence (looked up): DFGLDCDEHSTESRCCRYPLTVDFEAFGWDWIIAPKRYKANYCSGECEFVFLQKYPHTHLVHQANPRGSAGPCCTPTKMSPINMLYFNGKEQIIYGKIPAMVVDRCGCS

[5] = biological target: BMP6 (UniProt P22004); test: similar binding assay (Biacore)

Measured: binding

ActRIIA-mFc (from UniProt P27037 21-135) (Fc fusion)
binds: all assays above

Reference: patent US20240327494A1
